Measurements as given in PubChem BioAssay AID504444 (National Center for Advancing Translational Sciences (NCATS), 2011).
The campaign covered roughly 360,000 compounds. About 7,500 (2.1%) were called active. This list was built around the results that the source calls inconclusive (neither active nor inactive); the mix of calls is not that of the screen. Calls follow the shape of the dose curve; as a rule, active = well fitted inhibition curve with a large enough effect; inconclusive = small, poorly fitted or top-dose-only effect, or effect the other way; inactive = flat fitted curve, though single readings scatter. Where the call is inconclusive, the potency comes from a doubtful curve fit.

Test: Nrf2 qHTS screen for inhibitors; also: nearly all actives have a fitted effect of over 60% in size
Settings: A549 ARE-Fluc reporter, luciferase luminescence, 18-24 h; series mostly up to 46 µM
Procedure, shortened: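 In this cell-based qHTS, ARE-driven firefly luciferase in A549 cells reports Nrf2 activity; the luminescent signal after BugLite lysis is the measured value, with a prior CellTiter-Fluor read for cell health.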
Potency is read from the fitted curve at half-maximal effect.

**Q.** With O=C(NCCSc1ccccn1)c1ccc(Cl)cc1 as the compound, how does the Potency read?
**A.** inconclusive: 5.8 µM [activator, partial curve]

**Q.** For COC(=O)c1ccccc1NC(=O)N[C@@H](C)C(=O)OC, which Potency is on record?
**A.** inactive

**Q.** Which Potency does the source give for O=C(c1cc(-c2ccccc2)nc2ccccc12)N1CCCC1 here?
**A.** inactive

**Q.** With CCOc1ccc(CNC(=O)c2cnc3sc(N(CC)CC)nn3c2=O)cc1OC as the compound, how does the Potency read?
**A.** inactive

**Q.** Which Potency does the source give for CCOC(=O)c1sc(NC(=O)c2cc3c(s2)CCC(C)C3)nc1C (centres undefined) here?
**A.** inconclusive: 0.231 µM [activator, full curve]

**Q.** For O=C(COc1ccccc1F)Nc1ccc(S(=O)(=O)Nc2nccs2)cc1, which Potency is on record?
**A.** inconclusive: 1.3 µM [falling, partial curve, poor fit]

**Q.** For Cc1ccc(S(=O)(=O)N(CC(=O)Nc2ccccc2)C(=O)N2CCN(C)CC2)cc1, which Potency is on record?
**A.** inactive

**Q.** Which Potency does the source give for CCCn1c(NC(=O)C2CCN(S(=O)(=O)c3cccs3)CC2)nc2ccccc21 here?
**A.** inconclusive: 20.6 µM [falling, partial curve]

**Q.** Which Potency does the source give for CC1=CC2=NC(=O)CC(C)(C(=O)N(CC(=O)NC(C)(C)C)C3CCCC3)N2C=C1 (centres undefined) here?
**A.** inconclusive: 0.0058 µM [falling, partial curve, poor fit]

**Q.** Which Potency does the source give for COc1ccccc1CNC(=O)CN1C(=O)CSc2ccc(S(=O)(=O)N(C)C)cc21 here?
**A.** inconclusive: 29.1 µM [activator, single point]

**Q.** Which Potency does the source give for COc1ccc(OC)c(C(=O)NC(CC(N)=O)c2ccc(NCCN3CCCCC3)c([N+](=O)[O-])c2)c1 (centres undefined) here?
**A.** inconclusive: 2.59 µM [activator, partial curve]

**Q.** Which Potency does the source give for O=C(CCC(=O)N1CCN(S(=O)(=O)c2ccc3ccccc3c2)CC1)Nc1cc(Cl)cc(Cl)c1 here?
**A.** inconclusive: 29.1 µM [falling, single point]

**Q.** For O=C1C=C(NC2=CC3OC(c4ccccc4)OCC3OC2=O)CCC1 (centres undefined), which Potency is on record?
**A.** inactive

**Q.** With C(=Cc1cccnc1)c1ccncc1 as the compound, how does the Potency read?
**A.** inactive

**Q.** With COc1ccc(-c2noc(CCC(=O)N3CCN(c4ccccc4Br)CC3)n2)cc1 as the compound, how does the Potency read?
**A.** inconclusive: 29.1 µM [falling, single point]

**Q.** For O=C(N/N=C/c1ccccc1O)C1SCCCS1, which Potency is on record?
**A.** inconclusive: 29.1 µM [falling, single point]

**Q.** Which Potency does the source give for COc1ccc(OCc2n[nH]c(=S)n2N)cc1 here?
**A.** inconclusive: 4.11 µM [falling, full curve, poor fit]

**Q.** With CCN(CC)S(=O)(=O)c1ccc(NC(=O)CCc2c(C)nc3cc(-c4ccc(Cl)cc4)nn3c2C)cc1 as the compound, how does the Potency read?
**A.** inconclusive: 0.116 µM [falling, full curve]

**Q.** Which Potency does the source give for O=C(Cn1ccc(C(F)(F)F)n1)N=Nc1c(O)[nH]c2ccccc12 here?
**A.** inconclusive: 14.6 µM [falling, partial curve, poor fit]

**Q.** Which Potency does the source give for COc1ccc(C(O)(C2CCCCC2)C(CN2CCOCC2)c2ccccc2)cc1 (centres undefined) here?
**A.** active: 20.6 µM

**Q.** For Nc1ccc2cc3ccccc3cc2c1, which Potency is on record?
**A.** inconclusive: 23.1 µM [activator, single point]

**Q.** For COc1ccc(C2NC(=O)NC(c3ccccc3)=C2c2nc3ccccc3s2)cc1 (centres undefined), which Potency is on record?
**A.** inconclusive: 29.1 µM [falling, single point]

**Q.** With CCOC(=O)CC/C(=N\NC(N)=O)c1ccc(OC)c(Cl)c1 as the compound, how does the Potency read?
**A.** inactive

**Q.** For CCCCSc1nnc(-c2ccc(C)cc2)n1C, which Potency is on record?
**A.** inconclusive: 4.11 µM [activator, single point]

**Q.** With Cc1ccc2[nH]c(=O)c(CN(Cc3ccco3)Cc3nnnn3Cc3ccccc3)cc2c1 as the compound, how does the Potency read?
**A.** inconclusive: 13 µM [falling, partial curve]

**Q.** For CCc1c(N)nc(N)nc1Nc1ccc(C)c(C)c1, which Potency is on record?
**A.** inconclusive: 20.6 µM [falling, single point]

**Q.** With O=C(/C=C/c1ccccc1)C1=C(O)C(=O)N(CCO)C1c1cccc([N+](=O)[O-])c1 (centres undefined) as the compound, how does the Potency read?
**A.** inactive

**Q.** Which Potency does the source give for O=C(Nc1c2ccccc2nc2ccccc12)C(Cl)(Cl)Cl here?
**A.** inconclusive: 14.6 µM [falling, partial curve, poor fit]

**Q.** Which Potency does the source give for O=[N+]([O-])c1c(NCCO)cc(N2CCCCC2)c2nonc12 here?
**A.** inactive

**Q.** Which Potency does the source give for Cc1ccc(S(=O)(=O)N2CCN(C(C)C(=O)Nc3ccccc3-c3ccccc3)CC2)cc1 (centres undefined) here?
**A.** inactive

**Q.** With CN(C(=O)c1ccc(NC(=O)Cc2ccc(NC(=O)C3CCN(C(=O)CCc4ccccc4)CC3)cc2)cc1)C1CCCC1 as the compound, how does the Potency read?
**A.** inconclusive: 23.1 µM [falling, partial curve]

**Q.** Which Potency does the source give for CC(C)N(Cc1ccccc1)C(=O)CN1C(=O)COc2ccc(S(=O)(=O)NC3CCCC3)cc21 here?
**A.** inconclusive: 25.9 µM [activator, single point]

**Q.** Which Potency does the source give for Cc1ccc(Cn2nnc3c(=O)[nH]c(C4CCCN(S(=O)(=O)c5ccc(F)cc5)C4)nc32)cc1 (centres undefined) here?
**A.** inconclusive: 29.1 µM [falling, single point]

**Q.** Which Potency does the source give for NC(=O)CSc1nc(-c2ccccc2Cl)ns1 here?
**A.** inconclusive: 0.651 µM [activator, full curve, poor fit]

**Q.** Which Potency does the source give for CC1CCCN(C(=O)c2ccc3c(=O)n(C4CCCC4)c(=S)[nH]c3c2)C1 (centres undefined) here?
**A.** inconclusive: 18.4 µM [falling, single point]

**Q.** Which Potency does the source give for Cc1ccc(NC(=O)Cn2c(=O)c3cccn3c3ccccc32)c(C)c1 here?
**A.** inactive

**Q.** For O=C(NC(=S)Nc1cccc(CO)c1)c1ccc(-c2ccccc2)cc1, which Potency is on record?
**A.** inactive

**Q.** Which Potency does the source give for COc1ccc(-c2[nH]c3ccccc3c2SCCNC(=O)c2ccccc2)cc1 here?
**A.** inconclusive: 29.1 µM [falling, single point]

**Q.** For O=[N+]([O-])c1cc(C(F)(F)F)ccc1N1CCN(S(=O)(=O)c2ccc3c(c2)CCCC3)CC1, which Potency is on record?
**A.** active: 14.6 µM

**Q.** Which Potency does the source give for COc1ccc(C(=O)Nc2nc(C)c(C)s2)cc1OC here?
**A.** inconclusive: 4.11 µM [activator, full curve, poor fit]

**Q.** With Cc1cc(NC(=O)c2ccccc2Cl)no1 as the compound, how does the Potency read?
**A.** inconclusive: 8.2 µM [activator, partial curve]

**Q.** With CC(C)CNc1ncnc2oc(-c3ccco3)c(-c3ccco3)c12 as the compound, how does the Potency read?
**A.** active: 16.4 µM

**Q.** For CC(C)OC(=O)c1sc2nc(-c3ccccc3)ccc2c1N, which Potency is on record?
**A.** inconclusive: 29.1 µM [falling, single point]

**Q.** For c1ccc(-c2cc(-c3ccccc3)[nH]n2)cc1, which Potency is on record?
**A.** inconclusive: 5.17 µM [activator, partial curve]

**Q.** With CCSc1nnc(SCC(=O)NC2CCCCC2)s1 as the compound, how does the Potency read?
**A.** inactive

**Q.** With CCOC(=O)N/N=C(\C)c1ccc(C)o1 as the compound, how does the Potency read?
**A.** inconclusive: 23.1 µM [activator, single point]

**Q.** Which Potency does the source give for COc1ccc(CNC(=O)CSc2nc3ccsc3c(=O)n2Cc2ccccc2Cl)cc1 here?
**A.** inactive

**Q.** For CC(=O)Nc1cccc(NC(=O)c2c(-c3c(Cl)cccc3Cl)noc2C)c1, which Potency is on record?
**A.** inactive

**Q.** For Cc1cc2oc(C(=O)Nc3sc4c(c3C(=O)NCC3CCCO3)CCC4)cc(=O)c2cc1C (centres undefined), which Potency is on record?
**A.** inactive

**Q.** For N#C/C(=C\Nc1ccc2cn[nH]c2c1)c1nc(-c2ccc(Cl)cc2)cs1, which Potency is on record?
**A.** inconclusive: 25.9 µM [falling, single point]

**Q.** Which Potency does the source give for CCOc1ccc2[nH]c(=O)c(CN(Cc3ccc(F)cc3)C(=O)c3ccco3)cc2c1 here?
**A.** inconclusive: 16.4 µM [falling, single point]

**Q.** For CC1CCCCN1CCNC(=O)c1cc2c(-c3ccccc3F)nn(C)c2s1 (centres undefined), which Potency is on record?
**A.** inactive

**Q.** Which Potency does the source give for Cc1nc2cc(NS(=O)(=O)c3c(C)c(C)cc(C)c3C)ccc2s1 here?
**A.** active: 11.2 µM

**Q.** With Cc1ccc(-n2c(C)cc(C(=O)Cn3nc(C(=O)O)c4ccccc4c3=O)c2C)cc1 as the compound, how does the Potency read?
**A.** inconclusive: 16.4 µM [falling, single point]

**Q.** For Cc1cccc2c1-c1sc(C(=O)Nc3nccs3)cc1CO2, which Potency is on record?
**A.** inconclusive: 4.61 µM [activator, partial curve]

**Q.** With Cc1ccc(C)c(-c2cc(C(=O)Nc3sc(C)c(C)c3C(N)=O)c3ccccc3n2)c1 as the compound, how does the Potency read?
**A.** inconclusive: 29.1 µM [falling, single point]

**Q.** For CCn1c(=O)c2cc(C(=O)NC3CCCCCC3)sc2c2ccccc21, which Potency is on record?
**A.** inconclusive: 2.31 µM [falling, partial curve, poor fit]

**Q.** With CCOc1ccc(NC(=O)c2ccccc2OC)cc1 as the compound, how does the Potency read?
**A.** inconclusive: 7.31 µM [activator, partial curve]

**Q.** For CCC/C(O)=C1\C(=O)CC(C)(C)CC1=Nc1ccc(OC)cc1, which Potency is on record?
**A.** inconclusive: 14.6 µM [falling, partial curve, poor fit]

**Q.** For Cc1cccc(/C(N)=N/OC(=O)c2cccnc2)c1, which Potency is on record?
**A.** inconclusive: 18.4 µM [activator, partial curve]

**Q.** With COc1ccccc1-c1cc(C(=O)N2CCCCC2)no1 as the compound, how does the Potency read?
**A.** inconclusive: 11.6 µM [activator, partial curve]

**Q.** For Cc1noc(C)c1/C=N/Nc1ccc2ccccc2n1, which Potency is on record?
**A.** inconclusive: 1.46 µM [activator, partial curve, poor fit]

**Q.** With CCN(CC)CCCNC(=O)CCC(=O)Nc1ccc2nc(N3CCC(C)CC3)cc(C)c2c1 as the compound, how does the Potency read?
**A.** inconclusive: 29.1 µM [activator, single point]

**Q.** For O=C(CSc1n[nH]c(=O)n1Cc1ccccc1)Nc1ccc(F)c(F)c1F, which Potency is on record?
**A.** inactive

**Q.** With Cc1nc2cc(NC(=O)CS(=O)(=O)c3ccccc3)ccc2s1 as the compound, how does the Potency read?
**A.** inconclusive: 4.61 µM [activator, full curve]

**Q.** For CCOc1cc2sc(N3CCC(C(=O)Nc4ccc(C)cc4)CC3)nc2cc1Br, which Potency is on record?
**A.** inconclusive: 7.31 µM [activator, partial curve, poor fit]

**Q.** With CCCc1cc(=O)[nH]c(SCC(=O)Nc2ccc([N+](=O)[O-])cc2C#N)n1 as the compound, how does the Potency read?
**A.** inconclusive: 32.6 µM [falling, single point]

**Q.** With COc1ccc(C(=O)Cn2c(=N)n(C)c3ccccc32)cc1 as the compound, how does the Potency read?
**A.** inconclusive: 9.2 µM [activator, partial curve]

**Q.** With CN1CCN(S(=O)(=O)c2ccc(N(C)Cc3ccc(OC(F)F)cc3)c([N+](=O)[O-])c2)CC1 as the compound, how does the Potency read?
**A.** inconclusive: 20.6 µM [falling, single point]
